Laboratory results as given in the supplement of paper PMC10849652.
The other results are listed elsewhere or left out.

By UniProt entry, the sequences of proteins in these tests, tags left out. Where a name states a change or a piece, a line headed by the entry shows the natural chain unless it says otherwise.
UniProt Q9BV19: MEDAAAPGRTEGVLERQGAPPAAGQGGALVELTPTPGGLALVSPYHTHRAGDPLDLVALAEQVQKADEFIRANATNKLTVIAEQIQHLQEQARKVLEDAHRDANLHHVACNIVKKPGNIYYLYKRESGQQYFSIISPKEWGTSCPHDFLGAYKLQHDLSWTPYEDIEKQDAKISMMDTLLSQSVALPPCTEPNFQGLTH
UniProt P04632: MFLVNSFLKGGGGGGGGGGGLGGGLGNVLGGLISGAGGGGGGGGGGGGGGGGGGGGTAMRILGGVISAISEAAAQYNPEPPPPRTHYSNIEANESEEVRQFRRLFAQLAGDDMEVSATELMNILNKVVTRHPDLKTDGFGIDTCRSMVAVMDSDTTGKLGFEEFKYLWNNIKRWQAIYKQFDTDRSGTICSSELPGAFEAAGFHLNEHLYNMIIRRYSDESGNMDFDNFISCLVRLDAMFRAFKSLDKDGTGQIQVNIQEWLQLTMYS
UniProt Q8WUQ7: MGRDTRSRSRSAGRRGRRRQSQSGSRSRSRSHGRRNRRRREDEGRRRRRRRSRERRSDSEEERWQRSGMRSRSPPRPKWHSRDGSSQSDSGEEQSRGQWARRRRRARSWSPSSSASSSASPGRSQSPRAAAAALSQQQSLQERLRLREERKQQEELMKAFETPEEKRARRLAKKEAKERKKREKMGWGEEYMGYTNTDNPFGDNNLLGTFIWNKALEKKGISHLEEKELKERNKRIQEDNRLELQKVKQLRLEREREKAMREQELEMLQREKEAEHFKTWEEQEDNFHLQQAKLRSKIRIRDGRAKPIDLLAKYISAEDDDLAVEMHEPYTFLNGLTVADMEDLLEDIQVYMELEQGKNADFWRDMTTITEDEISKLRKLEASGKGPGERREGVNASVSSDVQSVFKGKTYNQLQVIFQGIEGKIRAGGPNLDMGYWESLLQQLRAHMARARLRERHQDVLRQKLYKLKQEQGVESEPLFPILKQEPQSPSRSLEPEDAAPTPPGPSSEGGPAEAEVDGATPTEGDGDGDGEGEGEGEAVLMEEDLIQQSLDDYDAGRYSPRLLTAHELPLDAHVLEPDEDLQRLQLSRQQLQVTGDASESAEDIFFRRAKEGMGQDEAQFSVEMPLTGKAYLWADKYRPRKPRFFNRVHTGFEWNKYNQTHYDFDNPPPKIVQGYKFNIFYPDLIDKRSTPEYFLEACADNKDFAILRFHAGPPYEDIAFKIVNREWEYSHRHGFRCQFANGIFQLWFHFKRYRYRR
UniProt Q9HB71, whole entry, looked up: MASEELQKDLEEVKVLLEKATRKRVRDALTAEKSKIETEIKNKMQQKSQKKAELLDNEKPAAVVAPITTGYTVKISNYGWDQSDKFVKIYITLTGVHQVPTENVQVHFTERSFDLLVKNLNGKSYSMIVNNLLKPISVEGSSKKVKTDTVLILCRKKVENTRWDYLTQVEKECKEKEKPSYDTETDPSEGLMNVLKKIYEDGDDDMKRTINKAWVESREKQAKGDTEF
UniProt Q2NKX9: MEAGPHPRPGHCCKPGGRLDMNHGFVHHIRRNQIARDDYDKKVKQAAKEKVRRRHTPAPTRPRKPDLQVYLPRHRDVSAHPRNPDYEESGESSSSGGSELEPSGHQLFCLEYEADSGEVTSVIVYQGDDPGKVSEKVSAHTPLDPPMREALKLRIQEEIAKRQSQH
UniProt Q5JPI3: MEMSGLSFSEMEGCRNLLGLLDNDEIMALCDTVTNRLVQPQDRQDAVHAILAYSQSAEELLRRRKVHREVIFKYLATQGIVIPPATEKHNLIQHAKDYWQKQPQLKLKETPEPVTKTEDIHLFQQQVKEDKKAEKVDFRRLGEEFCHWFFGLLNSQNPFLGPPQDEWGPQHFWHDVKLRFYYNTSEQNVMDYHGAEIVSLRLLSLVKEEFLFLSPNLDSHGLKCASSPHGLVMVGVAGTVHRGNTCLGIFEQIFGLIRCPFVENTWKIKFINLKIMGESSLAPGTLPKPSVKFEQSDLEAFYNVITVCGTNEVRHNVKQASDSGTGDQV
UniProt Q01518, whole entry, looked up: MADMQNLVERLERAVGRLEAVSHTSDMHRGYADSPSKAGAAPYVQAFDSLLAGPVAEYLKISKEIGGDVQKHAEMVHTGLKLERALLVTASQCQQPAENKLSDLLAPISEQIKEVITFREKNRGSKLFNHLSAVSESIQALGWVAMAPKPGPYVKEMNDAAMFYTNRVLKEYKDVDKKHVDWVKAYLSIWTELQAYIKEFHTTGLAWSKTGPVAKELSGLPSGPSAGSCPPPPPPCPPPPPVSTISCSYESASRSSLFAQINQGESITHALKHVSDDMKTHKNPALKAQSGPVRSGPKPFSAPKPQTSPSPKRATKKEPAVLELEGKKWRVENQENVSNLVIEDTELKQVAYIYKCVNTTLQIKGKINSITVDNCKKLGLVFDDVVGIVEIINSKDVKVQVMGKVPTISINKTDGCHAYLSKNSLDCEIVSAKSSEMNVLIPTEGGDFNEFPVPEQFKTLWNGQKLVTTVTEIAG
UniProt P27824: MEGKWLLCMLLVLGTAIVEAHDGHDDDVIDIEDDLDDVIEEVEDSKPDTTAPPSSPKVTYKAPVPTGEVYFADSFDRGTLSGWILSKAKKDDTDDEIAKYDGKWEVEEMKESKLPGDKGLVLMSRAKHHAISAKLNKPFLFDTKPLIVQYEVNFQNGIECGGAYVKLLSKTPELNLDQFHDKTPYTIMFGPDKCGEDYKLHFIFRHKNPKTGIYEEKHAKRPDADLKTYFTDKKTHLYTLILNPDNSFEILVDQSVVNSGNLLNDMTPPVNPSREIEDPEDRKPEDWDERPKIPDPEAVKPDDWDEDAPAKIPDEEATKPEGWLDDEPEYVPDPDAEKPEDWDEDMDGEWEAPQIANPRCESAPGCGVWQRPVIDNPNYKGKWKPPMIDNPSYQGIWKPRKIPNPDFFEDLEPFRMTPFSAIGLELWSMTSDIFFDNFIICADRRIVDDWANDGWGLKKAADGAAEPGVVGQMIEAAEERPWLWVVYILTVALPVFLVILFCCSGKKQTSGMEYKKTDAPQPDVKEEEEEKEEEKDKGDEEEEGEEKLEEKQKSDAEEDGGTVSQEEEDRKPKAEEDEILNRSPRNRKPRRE
UniProt Q9BRJ6: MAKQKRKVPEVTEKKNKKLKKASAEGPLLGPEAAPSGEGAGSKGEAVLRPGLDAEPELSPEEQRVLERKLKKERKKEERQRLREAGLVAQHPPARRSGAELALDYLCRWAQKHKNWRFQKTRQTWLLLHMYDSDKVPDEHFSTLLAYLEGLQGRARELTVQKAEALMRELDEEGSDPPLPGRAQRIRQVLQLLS
UniProt Q5T6V5: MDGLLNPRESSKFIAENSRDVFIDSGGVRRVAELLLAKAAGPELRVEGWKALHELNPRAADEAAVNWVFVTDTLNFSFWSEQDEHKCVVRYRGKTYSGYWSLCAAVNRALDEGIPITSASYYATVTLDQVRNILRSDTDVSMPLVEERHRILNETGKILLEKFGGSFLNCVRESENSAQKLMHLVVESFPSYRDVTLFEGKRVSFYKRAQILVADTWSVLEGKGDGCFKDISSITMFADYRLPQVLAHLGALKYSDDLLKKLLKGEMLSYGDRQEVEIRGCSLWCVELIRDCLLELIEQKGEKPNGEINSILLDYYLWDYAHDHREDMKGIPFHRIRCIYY
UniProt Q7L1Q6: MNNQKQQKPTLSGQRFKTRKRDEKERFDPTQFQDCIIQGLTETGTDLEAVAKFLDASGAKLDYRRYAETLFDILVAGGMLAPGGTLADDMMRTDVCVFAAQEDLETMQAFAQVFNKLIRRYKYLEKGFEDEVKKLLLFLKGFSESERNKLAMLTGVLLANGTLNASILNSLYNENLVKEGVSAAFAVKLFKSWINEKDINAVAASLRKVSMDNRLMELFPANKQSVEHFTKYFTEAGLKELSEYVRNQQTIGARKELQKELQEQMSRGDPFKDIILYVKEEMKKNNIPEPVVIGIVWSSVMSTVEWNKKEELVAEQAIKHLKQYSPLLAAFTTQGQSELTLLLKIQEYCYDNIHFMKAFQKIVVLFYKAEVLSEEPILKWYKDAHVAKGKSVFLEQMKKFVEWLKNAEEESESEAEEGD
UniProt P49069: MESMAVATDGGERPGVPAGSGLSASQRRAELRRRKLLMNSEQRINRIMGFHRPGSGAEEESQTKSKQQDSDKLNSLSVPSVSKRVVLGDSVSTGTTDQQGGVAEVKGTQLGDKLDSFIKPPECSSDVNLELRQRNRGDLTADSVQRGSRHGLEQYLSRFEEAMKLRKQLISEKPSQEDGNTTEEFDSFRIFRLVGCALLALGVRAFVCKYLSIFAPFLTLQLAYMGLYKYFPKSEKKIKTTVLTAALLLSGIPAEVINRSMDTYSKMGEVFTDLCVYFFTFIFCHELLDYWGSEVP
UniProt Q5T5Y3: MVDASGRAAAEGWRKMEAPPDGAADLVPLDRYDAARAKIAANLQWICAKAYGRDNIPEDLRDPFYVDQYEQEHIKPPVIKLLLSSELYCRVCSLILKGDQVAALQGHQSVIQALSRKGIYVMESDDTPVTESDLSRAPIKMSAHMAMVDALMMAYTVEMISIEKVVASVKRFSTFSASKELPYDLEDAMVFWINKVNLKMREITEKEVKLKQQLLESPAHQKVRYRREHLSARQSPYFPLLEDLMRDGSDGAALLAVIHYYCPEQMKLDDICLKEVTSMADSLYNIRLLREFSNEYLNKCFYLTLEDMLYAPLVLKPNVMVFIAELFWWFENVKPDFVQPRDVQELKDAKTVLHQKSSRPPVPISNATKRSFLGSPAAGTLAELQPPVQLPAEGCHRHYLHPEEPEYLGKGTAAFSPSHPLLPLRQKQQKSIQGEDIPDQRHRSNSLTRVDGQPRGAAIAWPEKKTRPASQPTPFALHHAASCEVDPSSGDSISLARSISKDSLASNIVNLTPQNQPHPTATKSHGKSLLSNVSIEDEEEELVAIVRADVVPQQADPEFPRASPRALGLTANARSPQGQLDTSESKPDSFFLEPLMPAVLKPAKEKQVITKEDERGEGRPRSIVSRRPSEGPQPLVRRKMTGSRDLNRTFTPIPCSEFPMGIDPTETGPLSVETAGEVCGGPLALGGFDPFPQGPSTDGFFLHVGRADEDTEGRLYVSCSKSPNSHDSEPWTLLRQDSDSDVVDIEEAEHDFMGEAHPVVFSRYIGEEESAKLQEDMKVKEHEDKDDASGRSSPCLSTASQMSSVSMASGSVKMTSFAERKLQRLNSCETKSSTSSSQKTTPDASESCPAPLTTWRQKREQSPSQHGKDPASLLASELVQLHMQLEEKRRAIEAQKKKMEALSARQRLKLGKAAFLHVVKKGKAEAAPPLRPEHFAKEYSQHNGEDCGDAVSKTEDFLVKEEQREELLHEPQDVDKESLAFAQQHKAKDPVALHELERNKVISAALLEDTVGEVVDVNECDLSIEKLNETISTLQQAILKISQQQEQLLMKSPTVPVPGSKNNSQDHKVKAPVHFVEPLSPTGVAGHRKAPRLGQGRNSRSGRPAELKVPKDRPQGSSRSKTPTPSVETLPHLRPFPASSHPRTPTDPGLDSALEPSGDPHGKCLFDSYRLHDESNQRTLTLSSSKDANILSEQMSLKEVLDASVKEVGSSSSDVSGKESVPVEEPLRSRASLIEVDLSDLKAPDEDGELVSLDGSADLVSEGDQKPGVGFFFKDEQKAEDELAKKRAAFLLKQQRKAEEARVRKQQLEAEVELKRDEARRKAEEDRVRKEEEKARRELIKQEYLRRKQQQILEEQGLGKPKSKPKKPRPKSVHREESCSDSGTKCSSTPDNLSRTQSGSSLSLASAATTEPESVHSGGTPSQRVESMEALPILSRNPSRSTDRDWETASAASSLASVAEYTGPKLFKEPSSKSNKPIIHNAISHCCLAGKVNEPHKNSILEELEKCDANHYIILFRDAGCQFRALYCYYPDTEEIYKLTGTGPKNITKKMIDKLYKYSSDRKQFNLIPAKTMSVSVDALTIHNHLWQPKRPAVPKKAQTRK
UniProt O43852: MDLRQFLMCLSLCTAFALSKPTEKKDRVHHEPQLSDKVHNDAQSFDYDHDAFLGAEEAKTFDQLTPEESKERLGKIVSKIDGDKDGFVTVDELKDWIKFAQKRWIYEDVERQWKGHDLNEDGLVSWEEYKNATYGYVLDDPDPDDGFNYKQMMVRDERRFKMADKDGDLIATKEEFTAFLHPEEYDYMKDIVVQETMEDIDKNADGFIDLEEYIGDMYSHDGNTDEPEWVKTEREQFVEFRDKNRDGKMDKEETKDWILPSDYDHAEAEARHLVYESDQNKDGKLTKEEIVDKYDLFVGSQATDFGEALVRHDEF
UniProt P40121: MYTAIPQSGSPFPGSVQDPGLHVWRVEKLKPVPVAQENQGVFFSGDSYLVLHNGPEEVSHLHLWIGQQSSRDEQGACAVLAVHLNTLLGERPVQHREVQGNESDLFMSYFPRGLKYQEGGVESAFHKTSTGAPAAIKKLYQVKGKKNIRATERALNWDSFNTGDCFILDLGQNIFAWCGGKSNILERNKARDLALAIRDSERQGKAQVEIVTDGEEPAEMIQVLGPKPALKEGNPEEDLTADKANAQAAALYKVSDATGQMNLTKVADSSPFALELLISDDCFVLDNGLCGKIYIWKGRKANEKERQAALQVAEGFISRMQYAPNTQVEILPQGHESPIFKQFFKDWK

Columns and labels:
Experiment in all cases: log2 fold change, soluble protein after heating vs DMSO (PISA); higher = thermal stabilisation; K562 lysate, 10 uM; active = over 0.2 and 3.5 SD of the protein, either way, in both replicates (recomputed)
[1] = compound: C#Cc1cccc(Nc2ncnc3cc(OCCOC)c(OCCOC)cc23)c1 [erlotinib]
In short: (§1)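 The values are log-two fold changes in thermal stability compared with solvent controls and come from duplicates. They were obtained by TMTpro 16plex LC-MS/MS, with channel sums equalised, on the supernatant after 21,000xg for 90 min. That supernatant came from crude K562 extract at 1 mg/mL protein treated with 10 μM compound for 30 min, heated for 3 min across 48°C-58°C, pooled and brought to 0.5% NP-40 at 4°C.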

[2] = compound: C/C(=N\NC(=O)C1=CC(=CC=C1)S(=O)(=O)N2CCOCC2)/C3=C(C=CC(=C3)Cl)O
In short: as §1

[3] = compound: C1=CC(=CC=C1C2=NC3=C(N2)C=C(C=C3)C(=O)N)OC4=CC=C(C=C4)Cl
In short: as §1

[4] = compound: C1=CC2=C(C=CC(=C2)/C=C\3/C(=O)NC(=NCC4=CC=CS4)S3)N=C1
In short: as §1

[5] = compound: C1=CC2=NC=CN=C2C=C1/C=C/3\C(=O)NC(=O)S3
In short: as §1

[6] = compound: C1=CC=C(C=C1)C2=NC(=C(N2)C3=CC=NC=C3)C4=CC(=C(C=C4)Cl)O
In short: as §1

[7] = compound: C1=CC=C2C(=C1)C3=NNC4=CC=CC(=C43)C2=O
In short: as §1

[8] = compound: C1CCN(C1)C(=O)NC2=CC=CC(=C2)NC3=NC=C(C(=N3)NCCC4=CN=CN4)Br
In short: as §1

[9] = compound: C1CN(CCC1(CC2=CC=C(C=C2)Cl)N)C3=NC=NC4=C3C=CN4
In short: as §1

[10] = compound: C1COCCN1CCN2C3=CC=CC=C3N=C2NC(=O)C4=CC(=CC=C4)[N+](=O)[O-] [IRAK-1-4 Inhibitor I]
In short: as §1

[11] = compound: C=CC(=O)N1CCC[C@@H](n2nc(-c3ccc(Oc4ccccc4)cc3)c3c(N)ncnc32)C1 [ibrutinib]
In short: as §1

[12] = compound: CC(=O)c1cnc2ccc(-c3cc(Cl)c(O)c(Cl)c3)nc2c1N[C@H]1CC[C@H](CN(C)C)CC1
In short: as §1

[13] = compound: CC(C)(C)Cn1c(N)nc2ccc(-c3[nH]c(C(C)(C)C)nc3-c3ccc(F)cc3)nc21 [ralimetinib]
In short: as §1

[14] = compound: CC(C)(O)CC(=O)NCCn1ccc2ncnc(Nc3ccc(Oc4cccc(C(F)(F)F)c4)c(Cl)c3)c21
In short: as §1

[15] = compound: CC(C)C1=C2N=C(C=C(N2N=C1)NCC3=CC=CC=C3)NCCCCCCN
In short: as §1

[16] = compound: CC1=C(C(CC(=O)N1)C2=CC=C(C=C2)C(F)(F)F)C(=O)NC3=C(C=C4C(=C3)C=NN4)F
In short: as §1

[17] = compound: CC1=C(C2=C(C=C1)C(=O)C3=CC=CC=C3N2CCCN)C
In short: as §1

[18] = compound: CC1=C(C=C(C=C1)NC(=O)C2=CC(=CC=C2)C(C)(C)C#N)NC3=CC4=C(C=C3)N=CN(C4=O)C
In short: as §1

[19] = compound: CC1=C(C=C(C=C1)NC(=O)C2=CC(=CC=C2)N(C)C)NC(=O)C3=CC=C(C=C3)O
In short: as §1

[20] = compound: CC1=CC=C(C=C1)SC2=C3C=C(SC3=CN=C2)C(=O)N
In short: as §1

Measured: log2 fold change

C1orf50 (UniProt Q9BV19)
inactive: [1] -0.067 | [2] -0.005 | [3] -0.047 | [4] -0.013 | [5] -0.007 | [6] -0.078 | [7] -0.022 | [8] 0.045 | [9] -0.016 | [10] -0.003 | [11] 0.185 | [12] 0.009 | [13] 0.034 | [14] -0.055 | [15] 0.12 | [16] -0.007 | [17] 0.013 | [18] 0.046 | [19] 0.061 | [20] 0.004

CAPNS1 (UniProt P04632)
inactive: [1] -0.066 | [2] 0.001 | [3] -0.023 | [4] 0.025 | [5] 0.006 | [6] -0.008 | [7] 0.082 | [8] -0.007 | [9] -0.039 | [10] -0.005 | [11] 0.076 | [12] 0.002 | [13] 0.035 | [14] -0.007 | [15] -0.015 | [16] 0.006 | [17] 0.053 | [18] 0 | [19] -0.025 | [20] 0.01

CALM2 (UniProt P0DP24)
inactive: [1] -0.089 | [2] 0.042 | [3] 0.062 | [4] 0.028 | [5] -0.117 | [6] 0.094 | [7] 0.001 | [8] 0.039 | [9] 0.118 | [10] 0.221 | [11] 0.262 | [12] 0.004 | [13] -0.014 | [14] -0.238 | [15] -0.07 | [16] -0.044 | [17] -0.101 | [18] -0.013 | [19] -0.099 | [20] 0.004

CACTIN isoform 2 (UniProt Q8WUQ7)
inactive: [1] 0.067 | [2] -0.002 | [3] -0.008 | [4] -0.023 | [5] -0.054 | [6] -0.032 | [7] 0.001 | [8] -0.032 | [9] 0.001 | [10] 0.046 | [11] 0.05 | [12] 0.116 | [13] -0.076 | [14] 0.033 | [15] 0.035 | [16] 0.118 | [17] 0.011 | [18] 0.029 | [19] -0.036 | [20] 0.063

CACYBP (UniProt Q9HB71)
inactive: [1] 0 | [2] -0.008 | [3] 0.023 | [4] -0.031 | [5] -0.01 | [6] 0.011 | [7] 0 | [8] 0.002 | [9] 0.007 | [10] -0.006 | [11] -0.016 | [12] 0.006 | [13] -0.042 | [14] -0.002 | [15] 0.009 | [16] -0.028 | [17] -0.001 | [18] -0.008 | [19] -0.003 | [20] -0.024

C2orf68 (UniProt Q2NKX9)
inactive: [1] -0.031 | [2] -0.236 | [3] 0.064 | [4] -0.008 | [5] 0.081 | [6] 0.061 | [7] 0.051 | [8] -0.01 | [9] 0.005 | [10] 0.04 | [11] 0.134 | [12] 0.02 | [13] -0.147 | [14] -0.001 | [15] 0.021 | [16] 0.139 | [17] 0.126 | [18] 0.03 | [19] -0.069 | [20] -0.052

C3orf38 (UniProt Q5JPI3)
inactive: [1] -0.029 | [2] -0.018 | [3] 0.087 | [4] 0.006 | [5] 0.001 | [6] 0.02 | [7] -0.062 | [8] -0.038 | [9] 0.005 | [10] -0.003 | [11] 0.049 | [12] 0.067 | [13] 0.009 | [14] -0.112 | [15] -0.002 | [16] -0.031 | [17] 0.002 | [18] 0.022 | [19] -0.04 | [20] 0.101

CAP1 (UniProt Q01518)
inactive: [1] 0.017 | [2] 0.047 | [3] -0.004 | [4] 0.01 | [5] 0.008 | [6] -0.052 | [7] 0.034 | [8] -0.013 | [9] -0.004 | [10] 0.001 | [11] 0.007 | [12] -0.019 | [13] -0.021 | [14] -0.018 | [15] 0.002 | [16] -0.014 | [17] 0.012 | [18] 0.024 | [19] -0.026 | [20] 0.001

Copied from the results shown (2 entries):
CACTIN isoform 2 (UniProt Q8WUQ7)
inactive: [1] 0.067 | [2] -0.002 | [3] -0.008 | [4] -0.023 | [5] -0.054 | [6] -0.032 | [7] 0.001 | [8] -0.032 | [9] 0.001 | [10] 0.046 | [11] 0.05 | [12] 0.116 | [13] -0.076 | [14] 0.033 | [15] 0.035 | [16] 0.118 | [17] 0.011 | [18] 0.029 | [19] -0.036 | [20] 0.063

CACYBP (UniProt Q9HB71)
inactive: [1] 0 | [2] -0.008 | [3] 0.023 | [4] -0.031 | [5] -0.01 | [6] 0.011 | [7] 0 | [8] 0.002 | [9] 0.007 | [10] -0.006 | [11] -0.016 | [12] 0.006 | [13] -0.042 | [14] -0.002 | [15] 0.009 | [16] -0.028 | [17] -0.001 | [18] -0.008 | [19] -0.003 | [20] -0.024

The list goes on:

CANX isoform 2 (UniProt P27824)
inactive: [1] 0.007 | [2] -0.027 | [3] 0.048 | [4] 0.004 | [5] 0 | [6] -0.007 | [7] -0.042 | [8] 0 | [9] 0.013 | [10] 0.003 | [11] -0.046 | [12] -0.009 | [13] -0.029 | [14] 0.003 | [15] 0.007 | [16] 0.001 | [17] -0.004 | [18] 0.011 | [19] 0.029 | [20] -0.025

C7orf50 (UniProt Q9BRJ6)
inactive: [1] -0.043 | [2] -0.033 | [3] -0.003 | [4] 0.015 | [5] -0.033 | [6] -0.01 | [7] 0.058 | [8] 0.024 | [9] -0.022 | [10] -0.008 | [11] 0.053 | [12] -0.017 | [13] 0.05 | [14] -0.038 | [15] 0.018 | [16] 0.004 | [17] -0.139 | [18] 0.001 | [19] 0.043 | [20] 0.009

C9orf64 (UniProt Q5T6V5)
inactive: [1] 0.016 | [2] 0.037 | [3] 0.041 | [4] -0.003 | [5] 0.007 | [6] -0.006 | [7] -0.035 | [8] -0.006 | [9] -0.004 | [10] -0.015 | [11] 0.005 | [12] 0.007 | [13] 0.014 | [14] -0.014 | [15] -0.014 | [16] -0.02 | [17] 0.009 | [18] 0.037 | [19] -0.001 | [20] -0.002

BZW1 isoform 3 (UniProt Q7L1Q6)
inactive: [1] 0.025 | [2] 0.026 | [3] -0.024 | [4] 0.006 | [5] 0.02 | [6] -0.005 | [7] 0 | [8] 0.019 | [9] -0.02 | [10] -0.019 | [11] 0.015 | [12] 0.014 | [13] -0.015 | [14] 0.002 | [15] -0.016 | [16] -0.005 | [17] 0.042 | [18] -0.036 | [19] 0.009 | [20] 0

CAMLG (UniProt P49069)
inactive: [1] -0.002 | [2] 0.05 | [3] -0.013 | [4] 0.004 | [5] -0.001 | [6] 0.035 | [7] -0.033 | [8] 0.029 | [9] -0.028 | [10] -0.025 | [11] -0.019 | [12] -0.003 | [13] 0.084 | [14] -0.023 | [15] 0.009 | [16] -0.068 | [17] -0.024 | [18] -0.028 | [19] 0.004 | [20] -0.012

CAMSAP1 isoform 3 (UniProt Q5T5Y3)
inactive: [1] -0.017 | [2] -0.089 | [3] 0.003 | [4] 0 | [5] -0.036 | [6] 0.013 | [7] -0.011 | [8] -0.001 | [9] 0.008 | [10] -0.009 | [11] 0.004 | [12] 0.005 | [13] 0.015 | [14] -0.012 | [15] 0.031 | [16] 0.012 | [17] 0.021 | [18] 0.024 | [19] 0.027 | [20] -0.051

CALU isoform 3 (UniProt O43852)
inactive: [1] -0.015 | [2] 0.006 | [3] 0.021 | [4] 0.016 | [5] -0.004 | [6] 0.008 | [7] -0.003 | [8] 0.002 | [9] 0.002 | [10] 0.006 | [11] -0.04 | [12] -0.006 | [13] -0.03 | [14] -0.006 | [15] 0.003 | [16] -0.013 | [17] -0.014 | [18] 0.01 | [19] 0.01 | [20] -0.021

CAPG (UniProt P40121)
inactive: [1] 0.016 | [2] -0.022 | [3] 0.008 | [4] -0.014 | [5] -0.021 | [6] -0.004 | [7] -0.011 | [8] -0.02 | [9] 0.01 | [10] 0.027 | [11] 0.002 | [12] -0.004 | [13] -0.013 | [14] -0.015 | [15] 0.026 | [16] 0.034 | [17] -0.011 | [18] -0.031 | [19] 0.01 | [20] 0.003
